Taken from: PubChem BioAssay AID1671195 (Yale University, 2021)
The deposit covers about 22,000 reagents; below is a part drawn at random. About 1,510 of all reagents (6.9%) were called active. 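Active includes knockdowns raising or lowering LDL uptake; positive z-scores mean more uptake, negative mean less.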 No sequences are given here.

Assay: 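Regulators of LDL receptor activity judged by labelled LDL uptake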 (primary screen)
Cells: human Huh7 hepatoma cells
Reagents: siRNA pool against human genes, 18 nM
Duration: about 2 to 2.5 days of knockdown, then 8 h LDL uptake
Treatment: DiI-labelled LDL at 30 µg/ml for 8 h, in lipoprotein-deficient serum medium
Detection: 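Fluorescent LDL signal imaged in cells, scaled to the plate median, robust z-score for each replicate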
Reading the numbers: robust z-score: higher = more LDL uptake after knockdown
Hit rule: 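a gene counts as active if at least two replicate z-scores exceed ±2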

target	robust z-score, replicate 1	robust z-score, replicate 2	robust z-score, replicate 3	activity call
GTF2F2	-0.566	-0.945	-0.768	inactive
ABTB2	2.94	3.93	6.04	active
ARL6IP6	-0.335	1.01	0.363	inactive
H2AC7	0.337	-0.033	0.28	inactive
AFMID	0.723	1.02	1.08	inactive
EDNRA	0.821	2.18	2.45	active
RPL7P8	-1.44	-1.26	-1.27	inactive
LOC401210 (retired record)	-1.26	-1.06	-0.742	inactive
STARD6	1.06	1.83	0.739	inactive
ZNF281	-0.611	-0.589	-0.289	inactive
LOC150519 (retired record)	0.858	0.0122	0.613	inactive
PGBD4	0.0632	0.827	0.285	inactive
NSDHL	-0.222	0.0604	0.0137	inactive
COX6C	1.39	1.5	-2.56	inactive
HES4	0.306	0.44	-0.0576	inactive
ADA	0.811	0.428	0.662	inactive
ZFYVE1	-0.777	0.409	-2.05	inactive
INTS12	-0.699	-0.399	-0.353	inactive
WDR76	0.0903	-0.592	-1.17	inactive
ZBED5	0.934	0.782	1.91	inactive
LOC440598 (retired record)	0.349	-0.244	-0.0883	inactive
SEMG1	0.725	0.409	-0.178	inactive
LOC400692 (retired record)	1.8	0.663	0.766	inactive
FAM185A	-0.97	-0.739	-0.491	inactive
KIN	-0.089	2.06	0.00213	inactive
SCD5	-0.917	-0.946	-0.857	inactive
LOC391570 (retired record)	1.4	0.935	1.09	inactive
PIP4P2	0.451	0.648	-0.618	inactive
